Assay results taken from the supplement of paper PMC12067093, “Discovery and optimisation of a covalent ligand for TRIM25 and its application to targeted protein ubiquitination” (Chemical Science, 2025).
The other results are listed elsewhere or left out.

Protein sequences, listed by entry. Tags and fused reporters are not part of them. Lines headed by an entry give the natural chain unless they say otherwise; changes in a name come on top.
UniProt Q8WUH1: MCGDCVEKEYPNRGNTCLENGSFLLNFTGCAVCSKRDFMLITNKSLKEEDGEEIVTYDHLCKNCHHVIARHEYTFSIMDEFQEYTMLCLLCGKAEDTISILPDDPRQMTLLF
UniProt Q8N5K1: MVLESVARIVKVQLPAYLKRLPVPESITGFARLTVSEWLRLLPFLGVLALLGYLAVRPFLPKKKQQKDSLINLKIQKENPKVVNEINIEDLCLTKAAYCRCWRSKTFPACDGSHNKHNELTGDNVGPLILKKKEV
UniProt P23528, whole entry, looked up: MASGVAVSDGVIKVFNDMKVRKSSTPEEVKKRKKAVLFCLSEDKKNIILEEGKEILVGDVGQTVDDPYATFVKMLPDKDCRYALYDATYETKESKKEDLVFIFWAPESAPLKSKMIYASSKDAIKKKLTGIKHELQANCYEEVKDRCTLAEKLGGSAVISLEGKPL
UniProt Q9NX63: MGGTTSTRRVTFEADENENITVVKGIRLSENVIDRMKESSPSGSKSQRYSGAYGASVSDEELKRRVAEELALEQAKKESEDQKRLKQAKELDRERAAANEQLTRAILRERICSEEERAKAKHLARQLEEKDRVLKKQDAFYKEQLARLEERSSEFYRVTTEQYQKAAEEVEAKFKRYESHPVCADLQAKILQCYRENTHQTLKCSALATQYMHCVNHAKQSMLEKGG
UniProt O14646: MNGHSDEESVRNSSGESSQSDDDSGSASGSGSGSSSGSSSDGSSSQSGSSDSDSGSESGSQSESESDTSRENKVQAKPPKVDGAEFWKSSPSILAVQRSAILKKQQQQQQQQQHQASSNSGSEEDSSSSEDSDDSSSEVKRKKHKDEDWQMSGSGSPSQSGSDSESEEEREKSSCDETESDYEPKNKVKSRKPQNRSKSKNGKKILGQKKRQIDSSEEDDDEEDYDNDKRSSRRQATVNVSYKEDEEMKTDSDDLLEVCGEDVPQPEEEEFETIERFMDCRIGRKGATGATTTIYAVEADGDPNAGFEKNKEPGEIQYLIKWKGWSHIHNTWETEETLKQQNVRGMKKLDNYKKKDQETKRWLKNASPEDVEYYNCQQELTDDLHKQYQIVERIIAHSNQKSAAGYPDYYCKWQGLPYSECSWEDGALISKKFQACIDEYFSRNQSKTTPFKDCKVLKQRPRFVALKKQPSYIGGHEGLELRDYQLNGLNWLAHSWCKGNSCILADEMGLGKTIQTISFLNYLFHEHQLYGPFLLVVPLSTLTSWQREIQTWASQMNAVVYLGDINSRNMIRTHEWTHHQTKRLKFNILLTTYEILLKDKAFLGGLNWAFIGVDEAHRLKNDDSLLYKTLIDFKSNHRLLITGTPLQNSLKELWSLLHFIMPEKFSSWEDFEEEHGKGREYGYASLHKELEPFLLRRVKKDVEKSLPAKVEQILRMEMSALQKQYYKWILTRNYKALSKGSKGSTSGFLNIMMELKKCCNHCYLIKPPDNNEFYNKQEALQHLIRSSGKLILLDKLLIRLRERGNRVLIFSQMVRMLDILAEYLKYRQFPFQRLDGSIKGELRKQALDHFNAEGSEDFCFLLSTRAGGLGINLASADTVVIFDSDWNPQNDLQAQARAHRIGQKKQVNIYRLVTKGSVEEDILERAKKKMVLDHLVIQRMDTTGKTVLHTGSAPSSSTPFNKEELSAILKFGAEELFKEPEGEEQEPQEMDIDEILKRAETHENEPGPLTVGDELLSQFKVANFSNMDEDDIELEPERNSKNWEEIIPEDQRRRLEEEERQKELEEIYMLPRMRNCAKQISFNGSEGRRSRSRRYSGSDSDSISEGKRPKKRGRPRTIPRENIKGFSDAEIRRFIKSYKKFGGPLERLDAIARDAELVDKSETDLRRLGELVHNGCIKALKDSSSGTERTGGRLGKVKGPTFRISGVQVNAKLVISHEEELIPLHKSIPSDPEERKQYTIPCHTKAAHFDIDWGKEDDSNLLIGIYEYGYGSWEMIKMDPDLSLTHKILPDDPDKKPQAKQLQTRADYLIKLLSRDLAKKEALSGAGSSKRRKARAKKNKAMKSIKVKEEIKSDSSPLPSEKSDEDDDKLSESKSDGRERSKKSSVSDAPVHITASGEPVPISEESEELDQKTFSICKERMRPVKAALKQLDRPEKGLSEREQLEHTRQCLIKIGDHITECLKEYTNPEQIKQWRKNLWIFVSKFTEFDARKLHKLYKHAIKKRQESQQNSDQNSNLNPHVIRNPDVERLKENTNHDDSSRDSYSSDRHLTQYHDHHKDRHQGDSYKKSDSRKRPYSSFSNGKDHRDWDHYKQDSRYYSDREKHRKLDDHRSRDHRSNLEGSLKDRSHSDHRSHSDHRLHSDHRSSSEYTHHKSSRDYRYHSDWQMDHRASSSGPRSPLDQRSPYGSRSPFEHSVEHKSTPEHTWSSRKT
UniProt Q00610: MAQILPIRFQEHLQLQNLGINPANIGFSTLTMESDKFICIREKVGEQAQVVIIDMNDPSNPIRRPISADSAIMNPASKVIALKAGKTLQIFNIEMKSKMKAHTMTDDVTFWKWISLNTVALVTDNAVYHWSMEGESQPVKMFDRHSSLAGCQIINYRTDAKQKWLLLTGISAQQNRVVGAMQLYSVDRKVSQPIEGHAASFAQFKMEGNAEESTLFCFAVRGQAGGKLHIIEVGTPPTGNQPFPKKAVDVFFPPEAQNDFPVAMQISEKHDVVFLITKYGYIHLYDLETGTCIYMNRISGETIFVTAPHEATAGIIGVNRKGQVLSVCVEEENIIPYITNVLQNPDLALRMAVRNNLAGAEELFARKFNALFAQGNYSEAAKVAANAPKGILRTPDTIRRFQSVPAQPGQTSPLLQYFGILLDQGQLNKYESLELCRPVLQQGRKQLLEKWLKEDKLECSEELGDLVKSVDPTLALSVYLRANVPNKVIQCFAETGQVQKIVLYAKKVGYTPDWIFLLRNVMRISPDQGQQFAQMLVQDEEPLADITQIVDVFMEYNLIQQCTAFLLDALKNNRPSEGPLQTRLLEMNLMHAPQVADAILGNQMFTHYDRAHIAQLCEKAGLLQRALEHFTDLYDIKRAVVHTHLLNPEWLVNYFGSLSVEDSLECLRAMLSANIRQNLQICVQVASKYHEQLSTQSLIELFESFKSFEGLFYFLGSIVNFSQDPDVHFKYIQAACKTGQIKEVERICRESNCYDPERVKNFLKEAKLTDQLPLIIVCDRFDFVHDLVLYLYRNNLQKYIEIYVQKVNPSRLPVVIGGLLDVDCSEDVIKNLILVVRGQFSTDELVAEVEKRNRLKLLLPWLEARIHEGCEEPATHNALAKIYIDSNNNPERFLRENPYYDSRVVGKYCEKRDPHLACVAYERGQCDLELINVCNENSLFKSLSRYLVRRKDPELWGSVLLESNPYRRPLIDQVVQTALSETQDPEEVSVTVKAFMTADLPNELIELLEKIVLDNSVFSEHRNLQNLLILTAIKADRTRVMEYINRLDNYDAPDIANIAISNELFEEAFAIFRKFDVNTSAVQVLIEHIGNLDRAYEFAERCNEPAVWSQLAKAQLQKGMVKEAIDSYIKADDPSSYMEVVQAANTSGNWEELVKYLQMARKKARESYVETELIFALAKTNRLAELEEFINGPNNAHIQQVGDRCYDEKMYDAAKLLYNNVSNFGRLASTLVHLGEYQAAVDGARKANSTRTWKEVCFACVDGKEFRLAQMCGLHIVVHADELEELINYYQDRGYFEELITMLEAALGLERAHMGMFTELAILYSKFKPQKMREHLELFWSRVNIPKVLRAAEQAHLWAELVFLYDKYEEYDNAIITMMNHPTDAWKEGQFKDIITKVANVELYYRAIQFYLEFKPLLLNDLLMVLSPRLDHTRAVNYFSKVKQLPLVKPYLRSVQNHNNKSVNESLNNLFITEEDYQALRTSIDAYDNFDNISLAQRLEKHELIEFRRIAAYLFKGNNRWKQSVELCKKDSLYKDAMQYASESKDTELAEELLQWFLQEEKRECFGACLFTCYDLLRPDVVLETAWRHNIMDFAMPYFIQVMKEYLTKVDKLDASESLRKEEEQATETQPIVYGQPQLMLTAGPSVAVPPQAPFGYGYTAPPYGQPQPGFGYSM
UniProt Q96RK0: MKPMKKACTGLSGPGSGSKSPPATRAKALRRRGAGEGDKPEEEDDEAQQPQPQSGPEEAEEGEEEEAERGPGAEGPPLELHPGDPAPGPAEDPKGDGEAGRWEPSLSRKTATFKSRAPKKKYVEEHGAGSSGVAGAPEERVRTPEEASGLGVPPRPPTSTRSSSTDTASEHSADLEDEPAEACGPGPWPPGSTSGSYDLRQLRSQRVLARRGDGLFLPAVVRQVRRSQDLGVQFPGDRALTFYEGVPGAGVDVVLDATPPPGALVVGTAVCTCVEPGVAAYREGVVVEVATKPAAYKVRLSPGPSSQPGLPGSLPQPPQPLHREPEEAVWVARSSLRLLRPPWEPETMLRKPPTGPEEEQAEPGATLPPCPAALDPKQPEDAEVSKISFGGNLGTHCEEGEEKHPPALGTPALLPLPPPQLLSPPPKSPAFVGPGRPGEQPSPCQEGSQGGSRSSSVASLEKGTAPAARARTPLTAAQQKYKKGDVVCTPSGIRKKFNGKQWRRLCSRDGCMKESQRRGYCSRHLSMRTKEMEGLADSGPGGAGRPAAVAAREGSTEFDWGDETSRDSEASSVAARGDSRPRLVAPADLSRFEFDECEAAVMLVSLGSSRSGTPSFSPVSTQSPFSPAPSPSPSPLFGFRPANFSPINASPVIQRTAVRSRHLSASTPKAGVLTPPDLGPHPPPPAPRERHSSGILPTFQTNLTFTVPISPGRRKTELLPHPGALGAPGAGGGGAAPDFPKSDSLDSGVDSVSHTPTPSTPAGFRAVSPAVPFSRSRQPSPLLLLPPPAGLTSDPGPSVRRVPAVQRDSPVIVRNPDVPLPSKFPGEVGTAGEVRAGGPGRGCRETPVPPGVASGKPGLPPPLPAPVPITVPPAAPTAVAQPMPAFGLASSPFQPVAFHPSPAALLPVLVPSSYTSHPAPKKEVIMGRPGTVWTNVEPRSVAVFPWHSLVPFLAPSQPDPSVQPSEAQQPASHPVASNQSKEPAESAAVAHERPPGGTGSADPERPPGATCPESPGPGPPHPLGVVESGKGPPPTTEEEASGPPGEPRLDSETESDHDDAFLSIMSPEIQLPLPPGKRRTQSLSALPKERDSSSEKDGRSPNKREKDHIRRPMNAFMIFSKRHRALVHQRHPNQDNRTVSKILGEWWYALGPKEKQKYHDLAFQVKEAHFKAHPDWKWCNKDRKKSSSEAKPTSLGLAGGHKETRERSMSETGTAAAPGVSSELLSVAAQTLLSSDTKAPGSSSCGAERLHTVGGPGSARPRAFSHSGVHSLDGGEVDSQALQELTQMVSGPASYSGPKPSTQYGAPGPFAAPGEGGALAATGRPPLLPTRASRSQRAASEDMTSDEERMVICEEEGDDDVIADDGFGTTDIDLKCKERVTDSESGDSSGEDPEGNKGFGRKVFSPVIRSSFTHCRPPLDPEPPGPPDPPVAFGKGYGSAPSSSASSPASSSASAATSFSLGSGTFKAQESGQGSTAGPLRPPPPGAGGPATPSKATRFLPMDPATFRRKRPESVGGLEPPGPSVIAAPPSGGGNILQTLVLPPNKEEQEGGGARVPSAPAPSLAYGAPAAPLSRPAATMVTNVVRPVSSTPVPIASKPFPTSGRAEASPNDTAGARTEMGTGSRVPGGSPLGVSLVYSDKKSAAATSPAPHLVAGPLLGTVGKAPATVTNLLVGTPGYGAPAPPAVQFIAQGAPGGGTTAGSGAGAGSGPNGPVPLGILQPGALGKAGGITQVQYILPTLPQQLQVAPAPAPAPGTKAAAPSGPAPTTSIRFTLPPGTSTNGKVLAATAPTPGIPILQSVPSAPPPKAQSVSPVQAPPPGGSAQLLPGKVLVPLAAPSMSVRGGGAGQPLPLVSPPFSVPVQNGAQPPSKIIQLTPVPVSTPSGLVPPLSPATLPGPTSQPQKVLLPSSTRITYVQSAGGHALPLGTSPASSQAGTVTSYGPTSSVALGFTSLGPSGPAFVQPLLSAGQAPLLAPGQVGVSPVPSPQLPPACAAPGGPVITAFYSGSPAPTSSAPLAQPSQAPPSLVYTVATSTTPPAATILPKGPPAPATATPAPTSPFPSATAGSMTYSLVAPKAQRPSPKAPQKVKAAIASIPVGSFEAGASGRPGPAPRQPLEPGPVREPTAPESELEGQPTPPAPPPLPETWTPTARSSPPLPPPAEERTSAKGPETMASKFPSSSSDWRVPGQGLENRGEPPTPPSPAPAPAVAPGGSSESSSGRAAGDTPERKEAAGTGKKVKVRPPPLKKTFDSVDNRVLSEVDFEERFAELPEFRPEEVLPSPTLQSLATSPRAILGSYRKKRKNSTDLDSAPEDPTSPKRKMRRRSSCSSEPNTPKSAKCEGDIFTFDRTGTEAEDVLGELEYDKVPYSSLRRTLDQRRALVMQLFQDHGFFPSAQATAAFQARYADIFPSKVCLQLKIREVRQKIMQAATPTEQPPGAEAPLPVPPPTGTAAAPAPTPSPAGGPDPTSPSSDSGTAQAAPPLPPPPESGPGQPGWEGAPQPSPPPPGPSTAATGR

Compound: CC1Cc2ccccc2N1C(=O)C1CCCN(C1)C(=O)CCl (mixture of isomers) [TRIM25 ligand 11 (diastereomer mixture)]
Assay: probe-labelled cysteine peptide fold change vs DMSO (competition) (log2 fold change); higher = less target engagement (more negative = stronger competition)
Settings: 10 µM; THP-1; incubation time: 4 h
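Also: competitive chemoproteomic profiling in live THP-1 cells with an iodoacetamide desthiobiotin (IA-DTB) probe, comparing probe-labelled peptide intensities in compound-treated cells against DMSO-treated controls.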

Row | Target | probe-labelled cysteine peptide fold change
1 | CHURC1_Q8WUH1_44+60_GNTCLENGSFLLNFTGCAVCSK (UniProt Q8WUH1) | 0.0773
2 | CLIC4_Q9Y696_234_DEFTNTCPSDK (UniProt Q9Y696) | 0.0598
3 | CIT_O14578_1688_GCHLFGAGK (UniProt O14578) | 0.0388
4 | CKAP5_Q14008_1500_CEMPELVQHK (UniProt Q14008) | 0.0192
5 | CLEC16A_Q2KHT3_566_LATLELSCLLLK (UniProt Q2KHT3) | -0.0394
6 | CFAP20_Q9Y6A4_160_VQIHANCR (UniProt Q9Y6A4) | -0.00861
7 | CISD2_Q8N5K1_110_TFPACDGSHNK (UniProt Q8N5K1) | -0.034
8 | CHTF18_Q8WVB6_825_LEPNVEELCRFPELPAR (UniProt Q8WVB6) | 0.0641
9 | CHAF1A_Q13111_710_VLQQFAACFLETLPAQEEQTPK (UniProt Q13111) | 0.0507
10 | CHAF1B_Q13112_191_SYVQGVTWDPLGQYVATLSCDR (UniProt Q13112) | 0.272
11 | CFL1_P23528_139_KLTGIKHELQANCYEEVK (UniProt P23528) | -0.632
12 | CHCHD3_Q9NX63_204_CSALATQYMHCVNHAK (UniProt Q9NX63) | -0.00551
13 | CLSPN_Q9HAW4_397_ETQIITGSDESCR (UniProt Q9HAW4) | -0.133
14 | CHD1_O14646_502_GNSCILADEMGLGK (UniProt O14646) | 0.0146
15 | CLTC_Q00610_753_ESNCYDPER (UniProt Q00610) | 0.0159
16 | CHD1_O14646_1417_TFSICK (UniProt O14646) | -0.0958
17 | CIC_Q96RK0_336_APGSSSCGAER (UniProt Q96RK0) | -0.0918

2 entries drawn at random from the list so far:
Row | Target | probe-labelled cysteine peptide fold change
15 | CLTC_Q00610_753_ESNCYDPER (UniProt Q00610) | 0.0159
11 | CFL1_P23528_139_KLTGIKHELQANCYEEVK (UniProt P23528) | -0.632
